PubChem BioAssay AID504804 – Drosophila RNAi Screening Center – 2011
Assay: 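Knock-downs shielding fly cells from apoptosis caused by DNA damage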 (primary screen). Cell system: Drosophila Kc cells. Reagents: long dsRNA against Drosophila genes, 0.5 µg dsRNA per well. Time to read-out: 96 h (48 h knock-down, then 48 h drug). Treatment: doxorubicin 5 µg/ml for 48 h, added 48 h after dsRNA. Measurement: 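Luminescent ATP counts per replicate, not normalised, reflecting viable cells after 48 h dsRNA knock-down followed by 48 h of 5 µg/ml doxorubicin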. Direction: raw ATP luminescence: higher = more viable cells, protection from doxorubicin. Rule for the call: 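Active when both duplicate wells lie at least 2 SD above the plate mean and protection is confirmed by rescreening and independent dsRNAs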.
The deposit covers about 19,000 reagents; this is an unselected part of those with a known target gene and a result. In the full data, 47 (0.25%) got an active call. 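Signals are raw, not normalised; exact z-scores behind calls not deposited; actives needed confirmation, so some wells reaching 2 SD are inactive.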

Gene | dsRNA | raw ATP luminescence, replicate 1 | raw ATP luminescence, replicate 2 | Call
CG11151 | DRSC19387 | 2.30e5 | 2.11e5 | inactive
B52 | DRSC14121 | 48507 | 25483 | inactive
fkh (fork head) | DRSC16949 | 67450 | 44860 | inactive
CG31200 | DRSC15285 | 59060 | 61370 | inactive
CG33252 | DRSC19162 | 2.70e5 | 2.87e5 | inactive
gzl (godzilla E3 ubiquitin protein ligase) | DRSC12517 | 51313 | 12687 | inactive
Usp30 (Ubiquitin specific protease 30) | DRSC18265 | 54050 | 51180 | inactive
cd (cardinal) | DRSC16157 | 53780 | 60850 | inactive
l(2)k09022 (lethal (2) k09022) | DRSC02108 | 78870 | 68203 | inactive
Polr3E (RNA polymerase III subunit E) | DRSC11880 | 76213 | 60473 | inactive
DNAlig1 (DNA ligase 1) | DRSC04518 | 68990 | 65063 | inactive
Lamtor5 (Late endosomal/lysosomal adaptor, MAPK and MTOR activator 5) | DRSC18491 | 51350 | 46230 | inactive
CG10184 | DRSC14204 | 38827 | 29393 | inactive
ksh (kish) | DRSC19554 | 2.93e5 | 2.96e5 | inactive
PolE4 (DNA polymerase epsilon subunit 4) | DRSC04105 | 32657 | 42873 | inactive
CG9902 | DRSC20212 | 2.93e5 | 2.30e5 | inactive
Pus7 (Pseudouridine synthase 7) | DRSC10703 | 93280 | 94290 | inactive
CG18808 | DRSC08539 | 93290 | 81800 | inactive
CAH13 (Carbonic anhydrase 13) | DRSC06128 | 34320 | 76157 | inactive
twe (twine) | DRSC03628 | 1.14e5 | 74930 | inactive
CG13362 | DRSC17897 | 53930 | 68490 | inactive
CG10559 | DRSC14255 | 59970 | 66960 | inactive
CG13309 | DRSC09980 | 70740 | 70727 | inactive
sicily (severe impairment of CI with lengthened youth) | DRSC19704 | 3.54e5 | 3.21e5 | inactive
Cbl (Cbl proto-oncogene) | DRSC10764 | 88373 | 96967 | inactive
Cbl (Cbl proto-oncogene) | DRSC11111 | 92120 | 86043 | inactive
Ect3 (Ectoderm-expressed 3) | DRSC15462 | 44473 | 48457 | inactive
yellow-f | DRSC15348 | 1.04e5 | 75130 | inactive
CG14931 | DRSC02413 | 22033 | 58300 | inactive
Rh2 (Rhodopsin 2) | DRSC16821 | 38140 | 36940 | inactive
Cyp6t1 (Cytochrome P450 6t1) | DRSC20564 | 3.54e5 | 3.23e5 | inactive
CG3739 | DRSC15510 | 51760 | 59330 | inactive
CG13855 | DRSC14705 | 56740 | 58900 | inactive
Fcp1 (TFIIF-interacting CTD phosphatase) | DRSC04121 | 53760 | 64920 | inactive
CG30429 | DRSC04040 | 99473 | 89393 | inactive
CG14606 | DRSC12550 | 70430 | 75793 | inactive

11 entries already listed, ordered by “raw ATP luminescence, replicate 2”, descending.
Gene | dsRNA | raw ATP luminescence, replicate 1 | raw ATP luminescence, replicate 2 | Call
CG33252 | DRSC19162 | 2.70e5 | 2.87e5 | inactive
CG11151 | DRSC19387 | 2.30e5 | 2.11e5 | inactive
l(2)k09022 (lethal (2) k09022) | DRSC02108 | 78870 | 68203 | inactive
DNAlig1 (DNA ligase 1) | DRSC04518 | 68990 | 65063 | inactive
CG31200 | DRSC15285 | 59060 | 61370 | inactive
cd (cardinal) | DRSC16157 | 53780 | 60850 | inactive
Polr3E (RNA polymerase III subunit E) | DRSC11880 | 76213 | 60473 | inactive
Usp30 (Ubiquitin specific protease 30) | DRSC18265 | 54050 | 51180 | inactive
fkh (fork head) | DRSC16949 | 67450 | 44860 | inactive
B52 | DRSC14121 | 48507 | 25483 | inactive
gzl (godzilla E3 ubiquitin protein ligase) | DRSC12517 | 51313 | 12687 | inactive

More reagents:
Gene | dsRNA | raw ATP luminescence, replicate 1 | raw ATP luminescence, replicate 2 | Call
Ubr3 (Ubr3 ubiquitin ligase) | DRSC17997 | 30710 | 38620 | inactive
CG13075 | DRSC09958 | 36403 | 43027 | inactive
Tie (Tie-like receptor tyrosine kinase) | DRSC08104 | 1.27e5 | 36410 | inactive
Tie (Tie-like receptor tyrosine kinase) | DRSC08702 | 80833 | 81500 | inactive
HnRNP-K (Heterogeneous nuclear ribonucleoprotein K) | DRSC07585 | 59647 | 69107 | inactive
GstD5 (Glutathione S transferase D5) | DRSC16686 | 62293 | 67573 | inactive
CG11127 | DRSC06043 | 68737 | 33653 | inactive
VhaAC39-2 (Vacuolar H[+] ATPase AC39 subunit 2) | DRSC15609 | 77260 | 82730 | inactive
CG3085 | DRSC04335 | 59923 | 63030 | inactive
CG12439 | DRSC02168 | 47077 | 68523 | inactive
Rsod (Related to Sod) | DRSC15424 | 38150 | 40810 | inactive
CG13606 | DRSC14609 | 87680 | 82020 | inactive
CG14591 | DRSC04868 | 52187 | 43860 | inactive
CG7420 | DRSC00704 | 92337 | 60570 | inactive
CG11158 | DRSC19389 | 2.88e5 | 2.38e5 | inactive
Nepl18 (Neprilysin-like 18) | DRSC14879 | 60600 | 55290 | inactive
CG7829 | DRSC16322 | 80510 | 51760 | inactive
ko (knockout) | DRSC11893 | 72813 | 58247 | inactive
CG1492 | DRSC19605 | 3.31e5 | 3.13e5 | inactive
CG5861 | DRSC02907 | 68997 | 72990 | inactive
knrl (knirps-like) | DRSC11892 | 29870 | 29490 | inactive
CG31326 | DRSC16532 | 1.11e5 | 70870 | inactive
AlaRS-m (Alanyl-tRNA synthetase, mitochondrial) | DRSC09660 | 36527 | 41957 | inactive
mol (moladietz) | DRSC01431 | 2.49e5 | 2.08e5 | inactive
mol (moladietz) | DRSC01912 | 74683 | 66787 | inactive
mol (moladietz) | DRSC02479 | 62283 | 64027 | inactive
coil (coilin) | DRSC07242 | 75230 | 58483 | inactive
DIP-iota (Dpr-interacting protein iota) | DRSC02140 | 29423 | 29713 | inactive
CG12672 | DRSC19482 | 3.34e5 | 3.40e5 | inactive
Tpr2 (Tetratricopeptide repeat protein 2) | DRSC03461 | 1.05e5 | 80913 | inactive
CG14471 (retired record) | DRSC04865 | 66957 | 52987 | inactive
CG4546 | DRSC15593 | 1.05e5 | 88950 | inactive
Edg84A (Ecdysone-dependent gene 84A) | DRSC12594 | 71510 | 60700 | inactive
Flad2 (Flavin adenine dinucleotide synthetase 2) | DRSC02531 | 70113 | 59923 | inactive
CG5357 (retired record) | DRSC04497 | 42370 | 46697 | inactive
Tudor-SN (Tudor staphylococcal nuclease) | DRSC08581 | 61877 | 48740 | inactive
Kank | DRSC05513 | 88567 | 96233 | inactive
Kank | DRSC05933 | 72597 | 66597 | inactive
CG3662 | DRSC00626 | 92173 | 80383 | inactive
CG14763 | DRSC06497 | 30623 | 66597 | inactive
Uch-L5 (Ubiquitin carboxy-terminal hydrolase L5) | DRSC11314 | 42860 | 35357 | inactive
CdGAPr (Cd GTPase activating protein-related) | DRSC03289 | 22977 | 24230 | inactive
Reck (Reversion-inducing-cysteine-rich protein with kazal motifs) | DRSC10504 | 25903 | 16600 | inactive
Reck (Reversion-inducing-cysteine-rich protein with kazal motifs) | DRSC10505 | 50620 | 46103 | inactive
Gr59f (Gustatory receptor 59f) | DRSC04499 | 45940 | 52517 | inactive
CG10834 | DRSC03693 | 49283 | 44697 | inactive
Csl4 | DRSC02944 | 49430 | 63963 | inactive
Nup43 (Nucleoporin 43kD) | DRSC16279 | 77030 | 77650 | inactive
